In US20160256527A1 (ONCOMED PHARMACEUTICALS, published 2016):
These are yes or no findings as the source states them, for the method shown. Some entries that bind do so weakly or less than the wild type. Sequences can lack the tags named with a protein.

T1: full-length mouse GITR (cell surface expression) (mouse) (UniProt O35714)
T1 sequence (looked up): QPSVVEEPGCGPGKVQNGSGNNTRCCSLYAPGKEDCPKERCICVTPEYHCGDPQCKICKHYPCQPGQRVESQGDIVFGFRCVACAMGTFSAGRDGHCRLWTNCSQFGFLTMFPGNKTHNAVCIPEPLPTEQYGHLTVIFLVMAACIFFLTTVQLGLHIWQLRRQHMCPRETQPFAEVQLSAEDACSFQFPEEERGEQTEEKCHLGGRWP


Tests used:
[1] = target: T1, full-length mouse GITR (cell surface expression) (mouse); assay: flow cytometry, HEK-293 cells transfected with full-length mouse GITR
[2] = target: T1, full-length mouse GITR (cell surface expression) (mouse); assay: flow cytometry on HEK293 cells transiently co-transfected with full-length mouse GITR and GFP; PE-conjugated anti-Fc secondary antibody; binding signal plotted against GFP
[3] = target: T1, full-length mouse GITR (cell surface expression) (mouse); assay: flow cytometry dose response, HEK-293 cells transfected with full-length mouse GITR
[4] = target: T1, full-length mouse GITR (cell surface expression) (mouse); assay: flow cytometry dose series (2-fold dilutions) on HEK293 cells transiently co-transfected with mouse GITR and GFP; PE-conjugated anti-Fc secondary antibody

| binding [1] | binding [2] | binding [3] | binding [4] | Binder |
| --- | --- | --- | --- | --- |
| binds | binds | – | – | 336B3, single chain mouse GITRL trimer linked to the C-terminus of a mouse IgG2a Fc region (Fc fusion, UniProt Q7TS55 43-173, looked up, not shown: a dimerising Fc or GST) SLKPTAIESCMVKFELSSSKWHMTSPKPHCVNTTSDGKLKILQSGTYLIYGQVIPVDKKYIKDNAPFVVQIYKKNDVLQTLMNDFQILPIGGVYELHAGDNIYLKFNSKDHIQKTNTYWGIILMPDLPFISSLKPTAIESCMVKFELSSSKWHMTSPKPHCVNTTSDGKLKILQSGTYLIYGQVIPVDKKYIKDNAPFVVQIYKKNDVLQTLMNDFQILPIGGVYELHAGDNIYLKFNSKDHIQKTNTYWGIILMPDLPFISSLKPTAIESCMVKFELSSSKWHMTSPKPHCVNTTSDGKLKILQSGTYLIYGQVIPVDKKYIKDNAPFVVQIYKKNDVLQTLMNDFQILPIGGVYELHAGDNIYLKFNSKDHIQKTNTYWGIILMPDLPFIS |
| binds | binds | binds | binds | 336B10, single chain mouse GITRL trimer linked to the N-terminus of a mouse IgG2a Fc region (Fc fusion, UniProt Q7TS55 43-173, looked up, not shown: a dimerising Fc or GST) SLKPTAIESCMVKFELSSSKWHMTSPKPHCVNTTSDGKLKILQSGTYLIYGQVIPVDKKYIKDNAPFVVQIYKKNDVLQTLMNDFQILPIGGVYELHAGDNIYLKFNSKDHIQKTNTYWGIILMPDLPFISSLKPTAIESCMVKFELSSSKWHMTSPKPHCVNTTSDGKLKILQSGTYLIYGQVIPVDKKYIKDNAPFVVQIYKKNDVLQTLMNDFQILPIGGVYELHAGDNIYLKFNSKDHIQKTNTYWGIILMPDLPFISSLKPTAIESCMVKFELSSSKWHMTSPKPHCVNTTSDGKLKILQSGTYLIYGQVIPVDKKYIKDNAPFVVQIYKKNDVLQTLMNDFQILPIGGVYELHAGDNIYLKFNSKDHIQKTNTYWGIILMPDLPFIS |
